PubChem BioAssay AID1508600 (Functional Genomics Laboratory (NCATS/FGL), 2020)
Among all 53,000 sequences or so, about 3,700 (7%) were called active.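 Rule for the calls: active = gene knockdowns whose robust z-score for IL-1 alpha signal is at least 2 or at most -2, so actives lie on both sides; inactive = the rest.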 This is one part of the list.

experiment: Components of the Cytosolic LPS Sensing Pathway: Gene Identification via Genome-wide siRNA Screen; conditions: RAW264.7 macrophages, IL-1a HTRF, actives lie on both sides, screened at 100 nM (by protocol), cells primed 5 h with Pam3CSK4 first;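 note: robust z of the log signal after scaling to non-targeting control siRNA wells of the plate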
Procedure, shortened: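 Knockdown: 100 nM siRNA, 48h, RAW264.7. Stimulation: Pam3CSK4 5 h, then LipidA via TransIT-TKO 24 h. Output: supernatant IL-1a HTRF, negative-control-normalized, log robust z-score; viability by CellTiter-Glo.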

Sequence | z-score
GGUUCAAUGCUCCCUUCGATT against Ghrl | inactive: 0.712
GGGUAGACCUCAAUGAUAUTT against Klhl31 | inactive: -0.575
GCUGGUGCUGUGCAUCUUUTT against Aqp2 | inactive: -0.922
GCCAUUUGAAACUCUCCUGTT against Gstp3 | inactive: -1.71
GGGUUUUAAGAAUCAGACUTT against Megf6 | inactive: 0.0599
GGAGCUGUUUCCAGUUCAGTT against Tomm40 | inactive: -1.12
GGAAAUUUGCCGGCCAAAUTT against Fam83a | inactive: 0.557
CGACAAUACUCUAUUGUUUTT against Agbl2 | inactive: 1.87
GGAGCAUUGCUCUUCUUCATT against Get4 | inactive: -0.073
CCGUGUUCCGAGGAUAUGUTT against Cyp2e1 | inactive: -0.212
GGUAAAGAUCUUUGAAGAGTT against Tnip1 | inactive: -0.172
CGACAAACUCACCUUGUCCTT against Dusp21 | inactive: -0.584
GCAUGUUGAUCAAGACUUGTT against Cdk6 | inactive: -0.82
GGACACGCUUCAAAUGGAUTT against Lcmt1 | inactive: 0.0561
GGCCUUAUGGAGUAAACUUTT against Ang3 | inactive: 1.57
GCAGUCCUCGUCCUCAAAGTT against Btbd10 | active: 2.16
GGCACCCUAUUUGUCAACGTT against Lrrc24 | inactive: -0.784
GGCUAUACUCUGAAUUCAATT against Zfp61 | inactive: 1.49
GGACAGCAAUAUUACACGUTT against Zfp39 | inactive: -0.211
GGGCUCUUAUAACUCUUUATT against Calm4 | inactive: -0.142
GGGAGUCACGAAAUUACAATT against Slco6c1 | inactive: -1.14
GCAUUGAUGUGGUUAUAACTT against Llph | inactive: -0.214

Sequence | z-score
GGUCAGGCUUAUGAAUAUUTT against Reep4 | inactive: -0.534
GGAAGGCAUAAGAAAACUGTT against Tbk1 | inactive: 1.91
GCUUUAGUGACGGCUCGAATT against Zscan2 | active: 2.07
GGACAGAAUGCUGAUGUUUTT against Rgl1 | inactive: 0.484
UUAUAUCCUGCCUUCUAUUTT against Psg28 | inactive: 0.0581
GGAUACAACUCCUGUGAUGTT against Hbp1 | inactive: -0.405
GGUGAAAAACAACAUCUGCTT against Coq4 | inactive: -0.987
CCAGGAGUCGAGUGAUGGUTT against Rtl1 | inactive: 0.886
GGAUGUACUGAGUAGCUUUTT against Mical1 | inactive: 0.45
CCAUCUAGGUUAUUACAUGTT against Dnaaf6 | inactive: 0.403
GGUAUUCAGUAUUUUGACUTT against Olfr196 | inactive: 1.56
GGUGAUUGACAACACACUGTT against Cpne9 | inactive: -1.01
GGAAAGAAGAAAGUGCAAUTT against Tns1 | inactive: 0.0363
GGCUGCUGACAUUUUCAUCTT against Lrrc28 | inactive: 1.53
GCUACUCCAAGGUGAAAGUTT against Tssk6 | inactive: 0.452
UGCUGGUGUCGUUAUGAAGTT against Pla2g12a | inactive: -1.09
GGAGGAGGACAUCUUCAUCTT against Pex11g | inactive: 1.57
CCUUAUGGCCUACGACUUCTT against Chit1 | inactive: -0.968
GGCAAUCCACCAAGUACAATT against Ptpn22 | inactive: 0.705
GAAAGUGGAAGCCACCAGUTT against Olfr110 | inactive: -0.474
CCUCUCCUGGUCUUAACAGTT against Rem2 | inactive: 0.637
GGCCUUGUACACUUUGAUGTT against Ldah | inactive: 0.622

Sequence | z-score
GGAUUUGAAAUAGGAAUAGTT against Sh3yl1 | inactive: 0.689
GGCCUAAGAAAACUCCAGCTT against Atp5md | inactive: -0.854
GAUGCUAGUGAACCUCAUGTT against Olfr1020 | inactive: -0.765
GCGAAUGAGAUACGAGUACTT against Ust | inactive: -0.224
GGCACUUCCUCGCUAAUAUTT against St7 | inactive: 0.495
GCAAUUAGAGAUGAAGCAATT against Ndufaf1 | inactive: 0.894
GGAUAAGCGUAUUUCUUUGTT against Olfr1015 | inactive: -0.609
CCGAAAAAUAUGUUUUCCGTT against Mettl4 | active: 2.87
GGAUCAAAGGAAGAAGGGCTT against Zbtb24 | inactive: -0.00585
GGAUAUCUGUUGCAUGGCATT against Wdr36 | inactive: -1.12
GCUCAGGAUCGCUAUUACATT against Il12b | inactive: -1.54
CCAAAGUAGAUGUGACCUATT against Rftn1 | inactive: -0.65
GGCCCUGCUUGUGUUUAAUTT against Ccdc71 | inactive: 1.22
GGACUACCUGGUACAGUCATT against Rhbdd2 | inactive: -0.411
CCUCAGAAAAAGAGUGUGCTT against 4930563M21Rik | inactive: 0.924
GGGAUUGCUCACAUCUCUGTT against Sirpb1a | inactive: 0.446
GGACUUCCUGACCAUCAUCTT against Tescl | inactive: -0.354
GGGAACAGUAUCUGAUUCATT against Polg | active: 2.35
GGGAUUCAGAGUCAAGAUUTT against Thpo | inactive: -0.275
GGAGCUACCAAGUUACUUCTT against Adgre4 | inactive: 0.592
GGGAGUGCCUUUAAAACACTT against Satb1 | inactive: 0.882
GGUGUUAGCUACAGAGACCTT against Rab32 | inactive: 0.267

Sequence | z-score
GGCUUUCAGAGUUAACAAATT against Ptpn4 | inactive: -0.727
CCCUACAGUACUAAUCAAATT against Ptgs2 | inactive: 0.6
GCUUAUUUGUGGUACACGGTT against D030056L22Rik | inactive: 0.112
GGACAGUUUCACGACAACGTT against Khsrp | inactive: -0.392
UAAUAUCUGGCACUUUAUGTT against Ctxn1 | inactive: 0.0897
GUCUUCCGGACAAGACAUATT against Hoxa6 | inactive: 1.09
GGAAAUUGAAGCAAAGAAGTT against Myo3b | inactive: 0.105
GGCAGAAUCAGUUGAAAUUTT against Terf2ip | inactive: 0.917
GGCCACCAUGAAAGACGACTT against Eif3j1 | inactive: 1.09
GUAAUCUUCACCGCCUCUCTT against Olfr315 | inactive: 0.934
CCAGUAUUCGCACAUCUCGTT against Olfm2 | inactive: 0.695
GGAGAGAAAAAGUAAUAUCTT against Fgf1 | inactive: 0.843
GCCUGUGAGAUCAUCUUUUTT against Pkd2 | inactive: -0.622
GGCAGAGCUAGAUCAAAUUTT against Retreg1 | active: 3.58
GGUCAAGUCACUGCUUGAATT against Csta2 | inactive: -0.253
GGCCAAAAUCUCAACAUAUTT against Glcci1 | inactive: -1.36
GGAAAACAAGCCUGUAUUUTT against Mbd4 | inactive: -0.57
CCUUGGAGAGAGAAGACAUTT against Rpp38 | inactive: 0.292
CGACCUAACCAACAUGCUUTT against Asap3 | inactive: 0.0248
GGGACAGUGUCCAGAAAAGTT against D130020L05Rik | inactive: -0.914
GGUGCUUAAACUUCACCCUTT against Polg2 | inactive: 0.143
GGAUGCUAUGCCAAAAACUTT against Csrp1 | inactive: -0.309

29 successive records already listed, quoted:
Sequence | z-score
GGCCCUGCUUGUGUUUAAUTT against Ccdc71 | inactive: 1.22
GGACUACCUGGUACAGUCATT against Rhbdd2 | inactive: -0.411
CCUCAGAAAAAGAGUGUGCTT against 4930563M21Rik | inactive: 0.924
GGGAUUGCUCACAUCUCUGTT against Sirpb1a | inactive: 0.446
GGACUUCCUGACCAUCAUCTT against Tescl | inactive: -0.354
GGGAACAGUAUCUGAUUCATT against Polg | active: 2.35
GGGAUUCAGAGUCAAGAUUTT against Thpo | inactive: -0.275
GGAGCUACCAAGUUACUUCTT against Adgre4 | inactive: 0.592
GGGAGUGCCUUUAAAACACTT against Satb1 | inactive: 0.882
GGUGUUAGCUACAGAGACCTT against Rab32 | inactive: 0.267
GGCUUUCAGAGUUAACAAATT against Ptpn4 | inactive: -0.727
CCCUACAGUACUAAUCAAATT against Ptgs2 | inactive: 0.6
GCUUAUUUGUGGUACACGGTT against D030056L22Rik | inactive: 0.112
GGACAGUUUCACGACAACGTT against Khsrp | inactive: -0.392
UAAUAUCUGGCACUUUAUGTT against Ctxn1 | inactive: 0.0897
GUCUUCCGGACAAGACAUATT against Hoxa6 | inactive: 1.09
GGAAAUUGAAGCAAAGAAGTT against Myo3b | inactive: 0.105
GGCAGAAUCAGUUGAAAUUTT against Terf2ip | inactive: 0.917
GGCCACCAUGAAAGACGACTT against Eif3j1 | inactive: 1.09
GUAAUCUUCACCGCCUCUCTT against Olfr315 | inactive: 0.934
CCAGUAUUCGCACAUCUCGTT against Olfm2 | inactive: 0.695
GGAGAGAAAAAGUAAUAUCTT against Fgf1 | inactive: 0.843
GCCUGUGAGAUCAUCUUUUTT against Pkd2 | inactive: -0.622
GGCAGAGCUAGAUCAAAUUTT against Retreg1 | active: 3.58
GGUCAAGUCACUGCUUGAATT against Csta2 | inactive: -0.253
GGCCAAAAUCUCAACAUAUTT against Glcci1 | inactive: -1.36
GGAAAACAAGCCUGUAUUUTT against Mbd4 | inactive: -0.57
CCUUGGAGAGAGAAGACAUTT against Rpp38 | inactive: 0.292
CGACCUAACCAACAUGCUUTT against Asap3 | inactive: 0.0248

Continuation.

Sequence | z-score
GGUUAUGGACAUUCAUGCCTT against Meis2 | inactive: -0.592
GGAAUUCCUCCUAUGUUCATT against G3bp2 | inactive: -1.07
GGUCUUGUGGUGGUACUACTT against Elovl2 | inactive: 1.77
CCUUAGGAGUACUUAAAAATT against Isl1 | inactive: 0.0379
GGAGGUUCUGCCCAUAACUTT against Whrn | inactive: -0.686
GGCCAUGCUGAGUUAGAUATT against Slc10a3 | inactive: 0.189
GUAUGAACACGCAGCAAACTT against Mmd2 | inactive: 0.169
GGUGUACAGUAUUUUAGUUTT against Clip4 | inactive: 1.12
GGGUCUACGAAGAAUAGGGTT against Cxcl14 | inactive: 0.744
GGCAUGAGAAUUGGUCCAGTT against Ehd4 | inactive: -1.22
GGCUGUGGAACACAUCAACTT against Eno3 | inactive: -0.787
CGACUACCUGGAUAUCUACTT against Efna2 | inactive: -0.292
GGAUAUUUGGAGAGAGAGGTT against Lrrn2 | inactive: -0.895
CGAAUUAUAGCAUUCAGCCTT against Map3k3 | inactive: 0.173
GGGAACCAUCAAUAGGCACTT against Apol7a | inactive: 0.923
GCAUGAUUCACCUGACACCTT against Nkx2-1 | inactive: -0.91
CGGAUAUGAGAUGAGAAUGTT against Morn4 | active: -2.4
GGCAGCACUACAAAACUUGTT against Rnf138rt1 | inactive: 0.193
GGGACCUCCAUCGUAUUUGTT against Slc29a4 | inactive: 0.71
